According to patent publication US9463188B2, “Osteopontin production inhibitor containing dictyopyrone derivative or dihydrodictyopyrone derivative as active ingredient” (TOHOKU UNIVERSITY, priority 2013, dated 2016):
For at least one compound, name, drawing or mass did not settle the structure.

How the values were obtained:
[1] = tested on: OPN promoter in A549/OPNluc cells; assay: Influence of mevalonic acid on suppression of luciferase activity under control of OPN promoter; format: cell-based, human
Protocol: In order to determine whether the OPN production inhibitory effect of a dictyopyrone derivative or a dihydrodictyopyrone derivative contained as an active ingredient in the OPN production inhibitor according to the present invention is based on the same mechanism of action as a well-known statin-based drug for treatment of hypercholesteremia, simvastatin or the compound 3 was added to a culture liquid containing A549/OPNluc cells to determine its effect on gene expression under control of OPN promoter and to observe whether or not the effect was maintained even in the presence of mevalonic acid.
A549/OPNluc cells were suspended in DMEM medium containing 10% FCS and 1% P/S at 3×10^4 cells/mL to obtain a cell suspension. The cell suspension of 100 μL was dispensed into each well of a 96-well plate, and the 96-well plate was incubated in a CO2 incubator (at 37° C. and 5% CO2) for 24±4 hours.
The 50 mmol/L solution of the compound 3 in DMSO stored at −80° C. was thawed by allowing it to stand at room temperature, and was then diluted with DMSO to prepare a 5.0 mmol/L solution. On the other hand, simvastatin (SVS: Sigma) was dissolved in DMSO to prepare a 50 mmol/L SVS solution, and the SVS solution was stored at −80° C. This SVS solution was thawed by allowing it to stand at room temperature before use and diluted with DMSO to prepare a 1 mmol/L SVS solution. […]
The solution in each well was mixed with a vortex mixer, and then the 96-well plate was incubated in a CO2 incubator (at 37° C. and 5% CO2) for 48±4 hours. […] After 30 min, 90 min, and 120 min, absorbance values (450 nm) were measured using a microplate reader (Bio-Rad; Benchmark or Thermo Scientific; Varioskan Flash).
The absorbance values were input into an Excel file, and the absorbance values of all the samples of each test group were divided by the average absorbance value of Control to determine the ratio of the absorbance value of each sample to the absorbance value of Control (Ratio to Control). Absorbance value of each sample÷absorbance value of Control=Ratio to Control […]

[2] = tested on: human non-small cell lung cancer-derived cell line A549; assay: Matrix-Invasion assay (Matrigel); format: cell-based; details: positive control 75 μmol/L, 48±4 hours
Protocol: As a second test for determining whether or not the physiological function of cells induced by OPN production is suppressed by a test compound, Matrix-Invasion assay was performed. In this assay, cups (inserts) whose bottom was covered with a membrane coated with collagen or laminin (Matrigel, BD Bioscience) as an extracellular matrix component and having φ8 μm pores and a 24-well plate for inserting the inserts were prepared. […]
Specifically, a fluorescent dye was introduced into A549 cells invading outside the membrane, and then the cells were separated from the membrane to measure their fluorescence intensity. At the same time, a fluorescent dye was introduced also into a known number of cells for preparing a calibration curve, and a calibration curve was prepared from their fluorescence intensity. Then, the number of invading cells of a test sample containing an unknown number of cells was determined from the fitted curve. […]
Cells of a human non-small cell lung cancer-derived cell line A549 were suspended in DMEM medium containing 10% FCS and 1% P/S at 1.8×10^5 cells/mL to obtain a cell suspension. […] This day was counted as Day 0 of operation. […]

Row | Structure (SMILES) | luciferase activity under control of OPN promoter after addition of MVA ([1]; SVS 5 μM + MVA 100 μmol/L) | luciferase activity under control of OPN promoter after addition of MVA ([1]; SVS 5 μM + MVA 1 mmol/L) | luciferase activity under control of OPN promoter ([1]; SVS 5 μM, no MVA, corrected by WST Ratio to Control) | total number of invading cells relative to control group [2]
1 | CCC(C)(C)C(=O)O[C@H]1C[C@@H](C)C=C2C=C[C@H](C)[C@H](CC[C@@H]3C[C@@H](O)CC(=O)O3)[C@H]21 [SVS, simvastatin] | recovered to the same level as Control | recovered to the same level as Control | reduced | –
2 | C[C@H]1c2cccc(O)c2C(=O)C2=C(O)[C@]3(O)C(=O)C(C(N)=O)=C(O)[C@@H](N(C)C)[C@@H]3[C@@H](O)[C@@H]21 [doxycycline, Doxycycline, reference compound] | – | – | – | ⅓
